Test results from PMC4030770.
These are yes or no findings as the source states them, for the method shown. Binding seen in cells or lysates may run through a third protein. Some entries that bind do so weakly or less than the wild type.

Chains of the proteins cited; added tags and fusions are not shown.
UniProt Q8C015: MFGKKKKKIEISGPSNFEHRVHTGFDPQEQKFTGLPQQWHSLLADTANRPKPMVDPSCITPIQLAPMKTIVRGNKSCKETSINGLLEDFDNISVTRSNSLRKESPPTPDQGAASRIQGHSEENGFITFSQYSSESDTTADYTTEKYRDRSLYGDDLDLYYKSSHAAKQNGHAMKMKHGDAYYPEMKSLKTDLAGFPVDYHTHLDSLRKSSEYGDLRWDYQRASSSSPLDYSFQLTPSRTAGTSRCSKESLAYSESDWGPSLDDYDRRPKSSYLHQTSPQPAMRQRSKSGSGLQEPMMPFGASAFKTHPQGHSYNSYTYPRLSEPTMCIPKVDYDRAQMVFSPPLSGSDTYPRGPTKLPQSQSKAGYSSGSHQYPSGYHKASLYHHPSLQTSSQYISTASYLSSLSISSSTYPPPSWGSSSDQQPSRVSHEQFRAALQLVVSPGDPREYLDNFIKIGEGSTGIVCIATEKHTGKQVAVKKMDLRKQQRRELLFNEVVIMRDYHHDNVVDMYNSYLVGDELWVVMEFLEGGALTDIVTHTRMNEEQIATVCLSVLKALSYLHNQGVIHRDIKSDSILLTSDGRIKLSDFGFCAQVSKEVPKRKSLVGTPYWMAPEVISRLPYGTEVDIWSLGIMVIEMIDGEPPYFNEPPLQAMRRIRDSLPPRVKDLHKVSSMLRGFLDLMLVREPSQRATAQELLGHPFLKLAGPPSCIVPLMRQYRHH

T1: DISC1 (mouse (endogenous in mouse brain)) (UniProt Q811T9)
T1 sequence: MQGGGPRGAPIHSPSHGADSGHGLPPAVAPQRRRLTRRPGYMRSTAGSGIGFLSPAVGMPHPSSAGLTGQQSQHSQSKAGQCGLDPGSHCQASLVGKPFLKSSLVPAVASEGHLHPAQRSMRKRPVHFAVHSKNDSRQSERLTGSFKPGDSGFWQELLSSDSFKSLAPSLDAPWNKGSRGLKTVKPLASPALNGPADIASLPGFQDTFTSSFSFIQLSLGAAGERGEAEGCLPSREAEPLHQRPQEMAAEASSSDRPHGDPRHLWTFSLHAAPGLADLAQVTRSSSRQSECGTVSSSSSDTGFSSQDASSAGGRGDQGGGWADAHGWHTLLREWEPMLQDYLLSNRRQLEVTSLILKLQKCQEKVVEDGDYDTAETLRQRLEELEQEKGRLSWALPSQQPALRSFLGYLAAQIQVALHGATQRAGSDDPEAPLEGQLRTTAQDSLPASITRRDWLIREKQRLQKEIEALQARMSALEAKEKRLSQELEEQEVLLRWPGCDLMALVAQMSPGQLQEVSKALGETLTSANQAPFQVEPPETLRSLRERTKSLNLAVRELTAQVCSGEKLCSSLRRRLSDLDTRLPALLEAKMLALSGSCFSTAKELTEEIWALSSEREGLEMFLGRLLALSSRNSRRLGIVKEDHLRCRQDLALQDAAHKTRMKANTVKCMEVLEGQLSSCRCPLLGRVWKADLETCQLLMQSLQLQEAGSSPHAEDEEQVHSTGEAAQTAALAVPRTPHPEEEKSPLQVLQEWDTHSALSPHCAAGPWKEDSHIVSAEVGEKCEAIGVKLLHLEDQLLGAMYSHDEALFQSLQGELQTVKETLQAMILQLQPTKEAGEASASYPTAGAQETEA


Legend:
[1] = target: T1, DISC1 (mouse (endogenous in mouse brain)); test: co-IP; 1000 ug synaptoneurosomal extract of full mouse brain in 500 ul extraction buffer (10 mM Tris, 0.1 M NaCl, 4 mM EDTA, 0.1% NP40); precipitated with 4 ug goat anti-PAK7 or goat anti-DISC1 for 16 h, protein A/G agarose; western blot for the other protein; normal goat IgG as negative control
[2] = target: p21 Protein-Activated Kinase 7 (mouse (endogenous in mouse brain)) (UniProt Q8C015); test: as above

| binding [1] | binding [2] | Molecule |
| --- | --- | --- |
| binds |  | p21 Protein-Activated Kinase 7 (from UniProt Q8C015 1-719) |
|  | binds | DISC1 (protein, UniProt Q811T9 1-852) MQGGGPRGAPIHSPSHGADSGHGLPPAVAPQRRRLTRRPGYMRSTAGSGIGFLSPAVGMPHPSSAGLTGQQSQHSQSKAGQCGLDPGSHCQASLVGKPFLKSSLVPAVASEGHLHPAQRSMRKRPVHFAVHSKNDSRQSERLTGSFKPGDSGFWQELLSSDSFKSLAPSLDAPWNKGSRGLKTVKPLASPALNGPADIASLPGFQDTFTSSFSFIQLSLGAAGERGEAEGCLPSREAEPLHQRPQEMAAEASSSDRPHGDPRHLWTFSLHAAPGLADLAQVTRSSSRQSECGTVSSSSSDTGFSSQDASSAGGRGDQGGGWADAHGWHTLLREWEPMLQDYLLSNRRQLEVTSLILKLQKCQEKVVEDGDYDTAETLRQRLEELEQEKGRLSWALPSQQPALRSFLGYLAAQIQVALHGATQRAGSDDPEAPLEGQLRTTAQDSLPASITRRDWLIREKQRLQKEIEALQARMSALEAKEKRLSQELEEQEVLLRWPGCDLMALVAQMSPGQLQEVSKALGETLTSANQAPFQVEPPETLRSLRERTKSLNLAVRELTAQVCSGEKLCSSLRRRLSDLDTRLPALLEAKMLALSGSCFSTAKELTEEIWALSSEREGLEMFLGRLLALSSRNSRRLGIVKEDHLRCRQDLALQDAAHKTRMKANTVKCMEVLEGQLSSCRCPLLGRVWKADLETCQLLMQSLQLQEAGSSPHAEDEEQVHSTGEAAQTAALAVPRTPHPEEEKSPLQVLQEWDTHSALSPHCAAGPWKEDSHIVSAEVGEKCEAIGVKLLHLEDQLLGAMYSHDEALFQSLQGELQTVKETLQAMILQLQPTKEAGEASASYPTAGAQETEA |
